Earlier results as cited in patent US20230021957A1, “USE OF PSILOCIN, […] ANALOGS THEREOF IN WEIGHT LOSS, TREATMENT OF OBESITY AND COMPULSIVE EATING DISORDER” (NEONMIND BIOSCIENCES INC., priority 2019, published 2023).
Some results were stated once for a whole list of compounds, not compound by compound.

Conditions: orally administered; cited from earlier work

Compound | half-life
CN(C)CCc1c[nH]c2cccc(O)c12 [psilocin, 4-hydroxy-N,N-dimethyltryptamine] | 1 to 3 h
CN(C)CCc1c[nH]c2cccc(OP(=O)(O)O)c12 [psilocybin] | 1 to 3 h
